Results are given in words; binding and its absence hold for the method and conditions named. In cells and extracts the contact can be indirect. For part of these data: Binding calls can cover weak binding; strength is not graded here.
How the values were obtained:
Assay in all cases: co-IP; GFP-Trap_A beads on lysates of HEK-293T cells transfected with one eGFP-tagged construct; lysis in 10 mM Tris/Cl pH 7.5, 150 mM NaCl, 0.5 mM EDTA, 0.5% NP-40; 1 h at 4 °C; co-precipitated endogenous proteins detected by immunoblotting
eGFP_Δ117NPMmutA (human) = eGFP_Δ117NPMmutA (human) (UniProt P06748)
[1] = biological target: eGFP-labeled NPMmutE (human) (UniProt P06748)
eGFP_NPMmutA (human) = eGFP_NPMmutA (human) (UniProt P06748)

Protein sequences, listed by entry. Tags and fused reporters are not part of them. Lines headed by an entry give the natural chain unless they say otherwise; changes in a name come on top.
UniProt P06748: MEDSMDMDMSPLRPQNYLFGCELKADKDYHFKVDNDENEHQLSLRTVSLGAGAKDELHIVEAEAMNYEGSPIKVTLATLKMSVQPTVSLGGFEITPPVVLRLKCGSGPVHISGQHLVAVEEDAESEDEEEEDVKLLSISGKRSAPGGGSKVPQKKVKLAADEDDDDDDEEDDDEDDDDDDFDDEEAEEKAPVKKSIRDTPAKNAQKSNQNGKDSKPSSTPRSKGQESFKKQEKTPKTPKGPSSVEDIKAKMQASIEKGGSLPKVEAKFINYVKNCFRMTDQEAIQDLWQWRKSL

Substance: endogenous NPM (HEK-293T) (from UniProt P06748 1-294)
- binding (eGFP_Δ117NPMmutA (human)): no binding
- binding [1]: binds
- binding (eGFP_NPMmutA (human)): binds
